Values of other authors in paper PMC8920097, “Prediction of hERG inhibition of drug discovery compounds using biomimetic HPLC measurements” (ADMET & DMPK, 2021).

Test system: hERG channel
Settings: literature values, mean where several reported, molar; cited from earlier work

## CN1C2CCCC1CC(NC(=O)c1nn(C)c3ccccc13)C2 (stereo not shown) [Granisetron]
  hERG pIC50: 4.65
